Source: PubChem BioAssay AID651640 (Broad Institute, 2012)
Out of some 350,000 compounds screened, about 6,000 (1.7%) were called active. The inconclusive results got no clear call from the source; some entries with a clear call stand among them for comparison. Rule as the data show it: active = CPE inhibition above about 20% (passing the limit was not always enough); inconclusive = no clear call, values can overlap the other calls; tested in BHK-21 cells.

Test: protection of cells from dengue 2 killing – plate reader, single concentration, primary screen (AID 651640);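 also: 0% = median of neutral control wells and 100% = median of positive control wells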
Settings: DENV2-infected cells, cytopathic effect rescue, at 9.99 µM, hits give high values

Structure (SMILES)	CPE inhibition
COc1ccc(CN(C)C[C@H]2OCCCC[C@@H](C)Oc3ccc(NS(=O)(=O)c4ccccc4)cc3C(=O)N([C@@H](C)CO)C[C@H]2C)cc1	active: 33.8%
COCC(=O)N1CCCCN2[C@H](CO)[C@@H](c3ccc(-c4ccccc4)cc3)[C@H]2C1	active: 40.3%
CC(=O)c1ccc(S(=O)(=O)N(C)CC(=O)Nc2cc(C)on2)cc1	inconclusive: 35.7%
C[C@H](CO)N1C[C@H](C)[C@@H](CN(C)Cc2ccc(C(=O)O)cc2)OCc2ccccc2-c2c(n(C)c3ccccc23)C1=O	inconclusive: 25%
Cc1cc(C)n2nc(CC(=O)NNC(=O)COc3cccc(C)c3C)nc2n1	inactive: 4.6%
CCC(=O)Nc1ccc2c(c1)OC[C@@H](C)N(CC1CC1)C[C@@H](C)[C@@H](OC)CN(C)C2=O	inactive: 3.14%
CC(=O)Nc1ccc(NC(=O)CSc2nnc(N)n2-c2ccccc2)cc1	inconclusive: 24.2%
CC(OC(=O)c1ccccc1C(=O)N(C)c1ccccc1)C(=O)Nc1ccc(C(N)=O)cc1 (centres undefined)	inconclusive: 42%
CC(C)=N/N=C1\NC(=O)C(C)S1 (centres undefined)	inconclusive: 28.2%
CCOc1ccccc1/C=C/C(=O)NCC(=O)N1CCC(N(C)C2CCCCC2C)CC1 (centres undefined)	inconclusive: 26.9%
CCOc1ccc2nc(N3C(=O)/C(=C/c4ccccc4)NC3=S)sc2c1	inconclusive: 25.8%
O=C(NCCC1CCCCN1S(=O)(=O)c1ccc(F)cc1)C(=O)NCc1ccncc1 (centres undefined)	inconclusive: 20.5%
COc1cc(OC)cc(-c2c(-c3cccs3)c3cc(-c4ccn[nH]4)ccc3n2C)c1	active: 32.6%
CCCCn1nnnc1C(c1cc2ccccc2o1)N1CCN(c2ncccc2C#N)CC1 (centres undefined)	inconclusive: 70.2%
NC(=O)C1CCN(C(=O)CCSc2ccc(Cl)cc2)CC1	inactive: -4.19%
CO[C@H]1CN(C)C(=O)c2ccc(NC(=O)Nc3ccccc3)cc2OC[C@H](C)NC[C@@H]1C	active: 31.6%
N#C/C(=C\c1ccc(N2CCOCC2)o1)C(=O)NCCc1ccccc1	inconclusive: 32.7%
C[C@@H]1CN([C@@H](C)CO)C(=O)Cc2cc(NC(=O)Nc3cccc4ccccc34)ccc2O[C@H]1CN(C)C	active: 21.3%
Cc1ccn2c(NC3CCCCC3)c(-c3cccc(SC4CCCCC4)c3)nc2c1	inconclusive: 30.9%
O=C(C[C@H]1CC[C@H]2[C@@H](COC[C@H](O)CN2C(=O)Cc2ccccc2)O1)NC1CCC1	active: 37.7%
CCOC(=O)[C@]12CCCC=C1N(Cc1ccco1)C(=O)[C@H](CC(=O)N1CCC(c3ccccc3)CC1)C2	active: 38.2%
O=C1O/C(=C/c2ccccc2)c2ccccc21	inconclusive: 29.3%
COc1cccc(-c2cn(CC[C@H]3CC[C@@H](NC(=O)CC4CC4)[C@H](CO)O3)nn2)c1	inconclusive: 28.4%
Cn1cnnc1SCC(=O)Nc1nc(-c2ccc(F)cc2)cs1	inconclusive: 52.8%
CCc1cccc(OCCN2CCCC2)c1	active: 50.5%

Structure (SMILES)	CPE inhibition
OC(c1cc(-c2cccc(Cl)c2)nc2ccccc12)C1CCCCN1 (centres undefined)	inconclusive: 74.7%
Cc1nn(-c2ccccc2)c(C)c1NC(=O)COC(=O)c1ccc(NC(=O)CC#N)cc1	inconclusive: 23.4%
S=C1NC[C@H](c2ccccc2)N1CCCCC1CCCCC1	inconclusive: 25.5%
C[C@@H]1CN([C@H](C)CO)C(=O)Cc2cc(NC(=O)Nc3ccc4c(c3)OCO4)ccc2O[C@H]1CN(C)C(=O)Nc1cccc2ccccc12	inconclusive: 42.1%
Cn1cc(/C=C2\SC(=S)N(NC(=O)c3ccccc3Cl)C2=O)c2ccccc21	inconclusive: 27.4%
O=S(=O)(c1ccc(F)cc1)N1CC[C@@H]2[C@H](CO)Nc3ccc(-c4ccccc4F)cc3[C@@H]21	inconclusive: 23.4%
C[C@@H]1CN([C@@H](C)CO)C(=O)c2cc(NC(=O)CCCCCC(=O)Nc3ccccc3N)ccc2O[C@H]1CN(C)S(C)(=O)=O	inactive: 17.4%
O=C(CN(CC1CCCO1)S(=O)(=O)c1ccc(S(=O)(=O)NCC2CCCO2)cc1)Nc1ccccc1 (centres undefined)	inactive: -4.68%
O=C(c1ccc(-n2cccn2)cc1)N1CCN(c2ncccc2C(F)(F)F)CC1	inconclusive: 48.6%
CNC[C@@H]1Oc2c(NC(=O)C3CCOCC3)cccc2C(=O)N([C@H](C)CO)C[C@@H]1C	inactive: -8.67%
C[C@@H]1CN([C@H](C)CO)C(=O)c2cc(NS(=O)(=O)c3ccccc3)ccc2O[C@@H](C)CCCCO[C@H]1CN(C)Cc1ccc(C(=O)O)cc1	inconclusive: 39.3%
COc1ccc(CN2C[C@H](C)[C@@H](OC)CN(C)C(=O)c3cc(NC(=O)c4nc5ccccc5s4)ccc3OC[C@@H]2C)cc1	active: 31%
CCC(CO)Oc1cc(NC(=O)c2ccc(F)cc2)c2ncn(C(C)C)c2c1 (centres undefined)	inconclusive: 53.2%
COc1ccc(C(=O)c2[nH]c(N)c(C(=O)NCCc3c[nH]c4ccccc34)c2-c2c(F)cccc2Cl)cc1	active: 66.8%
O=C(CN1CCOCC1)N1CCCCN2[C@H](CO)[C@@H](c3ccc(C#Cc4ccccc4F)cc3)[C@H]2C1	active: 27.2%
O=S(=O)(c1cnc(Cl)c(Cl)c1)N1CCc2ccccc21	active: 56.6%
C[C@@H]1CN([C@H](C)CO)C(=O)c2cc(NC(=O)Cc3cn(C)c4ccccc34)ccc2O[C@H]1CN(C)S(=O)(=O)c1cccs1	inactive: 5.81%
C[C@@H]1CN([C@@H](C)CO)C(=O)c2cc(NC(=O)CCC(F)(F)F)ccc2O[C@@H](C)CCCCO[C@H]1CN(C)S(=O)(=O)c1cccs1	inactive: -6.3%
Cc1ccc(/C=C2\C(=O)Nc3ccccc32)o1	inconclusive: 37.9%
C[C@@H]1CN([C@H](C)CO)C(=O)c2cc(NC(=O)Cc3ccccc3)ccc2O[C@@H](C)CCCCO[C@H]1CN(C)S(=O)(=O)c1ccc(Cl)cc1	inactive: -16.1%
CNC[C@@H]1Oc2ccc(NS(C)(=O)=O)cc2CC(=O)N([C@@H](C)CO)C[C@H]1C	inactive: -1.63%
Cn1cc(S(=O)(=O)NC[C@H]2O[C@@H](n3ccc(=O)[nH]c3=O)[C@H](O)[C@@H]2O)cn1	inconclusive: 22.9%
OC(c1ccccc1)(c1ccccc1)C1CCN(CCCOc2cccc(OC(F)(F)F)c2)CC1	inconclusive: 21%
CS(=O)(=O)c1ccccc1-c1nnc(NC(=O)c2ccc3ncsc3c2)o1	inconclusive: 28.6%
C[C@H]1[C@H]2c3nc4ccccc4n3C[C@H]1ON2C1CCCCC1	inconclusive: 34.3%

A portion taken from the entries so far, for reference:
Structure (SMILES)	CPE inhibition
COc1ccc(CN2C[C@H](C)[C@@H](OC)CN(C)C(=O)c3cc(NC(=O)c4nc5ccccc5s4)ccc3OC[C@@H]2C)cc1	active: 31%
CCC(CO)Oc1cc(NC(=O)c2ccc(F)cc2)c2ncn(C(C)C)c2c1 (centres undefined)	inconclusive: 53.2%
COc1ccc(C(=O)c2[nH]c(N)c(C(=O)NCCc3c[nH]c4ccccc34)c2-c2c(F)cccc2Cl)cc1	active: 66.8%

Next records follow.

Structure (SMILES)	CPE inhibition
COc1ccc(CN(C)C[C@H]2Oc3ccc(NC(=O)Cn4cnnn4)cc3C(=O)N([C@@H](C)CO)C[C@@H]2C)cc1	inconclusive: 21.6%
C[C@H](O)C#Cc1cnc2c(c1)C(=O)N([C@@H](C)CO)C[C@H](C)[C@H](CN(C)C(=O)CN1CCOCC1)O2	inactive: -5%
COc1ccc(OC)c(C2=CC(=O)C[C@H](c3ccc(F)cc3)C2)c1	inconclusive: 83.1%
CC(=O)c1cccc(NC(=S)NC2CCCCCCC2)c1	inconclusive: 63.9%
C#CCOCCOCCOCCNc1nc(N2CCN(C(=O)[C@H](CCCCN)n3cc(CN)nn3)CC2)nc(N2CCN(C(=O)[C@H](CCC(=O)O)n3cc([C@@H](N)[C@H](C)CC)nn3)CC2)n1	inconclusive: 74.4%
O=C(COC(=O)C1(c2ccccc2F)CCCC1)N1CCNC1=O	inconclusive: 61.5%
C[C@H](CO)N1C[C@H](C)[C@H](CN(C)Cc2ccc(C(=O)O)cc2)Oc2c(NS(=O)(=O)c3ccc(Cl)cc3)cccc2C1=O	inactive: 13.6%
COc1ccc2c(c1)c1nnc(SCC(=O)Nc3ccccc3F)nc1n2C	active: 51.1%
O=Cc1cn(CCOc2ccccc2)c2ccccc12	inconclusive: 30.8%
CCOc1cc(C(=O)NCCN2C(=O)S/C(=C\c3cccnc3)C2=O)cc(OCC)c1OCC	inconclusive: 30.3%
Cc1ccc([N+](=O)[O-])cc1NC(=O)CN(C(=O)c1ccccc1Cl)C1CCCCC1	inconclusive: 38.5%
COc1ccc(C)cc1NC(=O)CO/N=C(\N)CC(=O)NC1CCCCC1	inconclusive: 22.2%
Cc1cc(C)c2sc(NC(=O)c3ccc([N+](=O)[O-])o3)nc2c1	inconclusive: 36%
COC(=O)C1(CC2CC(c3ccncc3)=NO2)CCN(C(=O)OC(C)(C)C)CC1 (centres undefined)	active: 37.2%
O=c1cc(CN2CCOCC2)c2ccc(O)c(O)c2o1	inconclusive: 23.8%
COc1cc(NC(=O)[C@@H](Cc2ccccc2)NC(=O)[C@H]2O[C@@H](n3ccc(=O)[nH]c3=O)[C@H](O)[C@@H]2O)cc(OC)c1OC	active: 42.9%
COCCN(C(=O)c1ccccc1F)c1nc(-c2ccc(OC)cc2)cs1	inconclusive: 25%
O=C(CSc1nnc(-c2ccncc2)n1-c1ccccc1)NCC1CCCO1 (centres undefined)	inconclusive: 53.2%
COc1ccc(-c2csc(NC(=O)c3c(C)noc3C)n2)cc1	inactive: -1.22%
CC(=O)c1cccc(NC(=O)CC2CCCC2)c1	inconclusive: 33.5%
Cc1ccc(C(=O)N(CC(=O)NC2CCCC2)c2ccccc2F)s1	inconclusive: 56.4%
Cc1ccccc1-c1ccc([C@H]2[C@@H](CO)N3CCCCN(CC4CC4)C[C@H]23)cc1	inactive: 16.8%
CCOC(=O)N1CCN(C(=S)Nc2cc(S(=O)(=O)N3CCOCC3)ccc2Cl)CC1	inactive: 5.22%
Cn1c(N)c(C(=O)COC(=O)CNC(=O)c2ccccc2)c(=O)n(C)c1=O	inconclusive: 33.3%
